This note sets out measurements from paper PMC9830504.

Chains of the proteins cited; added tags and fusions are not shown.
UniProt P49841: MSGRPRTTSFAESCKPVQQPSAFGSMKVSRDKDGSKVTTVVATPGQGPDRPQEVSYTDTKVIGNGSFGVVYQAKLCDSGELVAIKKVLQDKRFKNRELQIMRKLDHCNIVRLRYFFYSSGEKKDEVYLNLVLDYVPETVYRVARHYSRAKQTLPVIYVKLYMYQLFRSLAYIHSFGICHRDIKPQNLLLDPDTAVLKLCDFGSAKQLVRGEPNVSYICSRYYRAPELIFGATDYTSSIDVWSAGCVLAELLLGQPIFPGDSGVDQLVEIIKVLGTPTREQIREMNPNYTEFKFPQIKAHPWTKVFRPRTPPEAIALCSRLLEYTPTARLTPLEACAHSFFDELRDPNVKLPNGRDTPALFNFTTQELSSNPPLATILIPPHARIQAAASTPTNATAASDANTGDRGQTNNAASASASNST
UniProt O95863: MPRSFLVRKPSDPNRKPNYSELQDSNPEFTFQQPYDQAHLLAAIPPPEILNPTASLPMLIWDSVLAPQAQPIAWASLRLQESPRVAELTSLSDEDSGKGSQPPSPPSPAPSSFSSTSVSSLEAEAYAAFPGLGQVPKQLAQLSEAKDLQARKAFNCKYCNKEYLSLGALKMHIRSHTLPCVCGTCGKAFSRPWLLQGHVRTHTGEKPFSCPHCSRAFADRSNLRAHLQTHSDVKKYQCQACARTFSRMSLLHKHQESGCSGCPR
UniProt Q14974: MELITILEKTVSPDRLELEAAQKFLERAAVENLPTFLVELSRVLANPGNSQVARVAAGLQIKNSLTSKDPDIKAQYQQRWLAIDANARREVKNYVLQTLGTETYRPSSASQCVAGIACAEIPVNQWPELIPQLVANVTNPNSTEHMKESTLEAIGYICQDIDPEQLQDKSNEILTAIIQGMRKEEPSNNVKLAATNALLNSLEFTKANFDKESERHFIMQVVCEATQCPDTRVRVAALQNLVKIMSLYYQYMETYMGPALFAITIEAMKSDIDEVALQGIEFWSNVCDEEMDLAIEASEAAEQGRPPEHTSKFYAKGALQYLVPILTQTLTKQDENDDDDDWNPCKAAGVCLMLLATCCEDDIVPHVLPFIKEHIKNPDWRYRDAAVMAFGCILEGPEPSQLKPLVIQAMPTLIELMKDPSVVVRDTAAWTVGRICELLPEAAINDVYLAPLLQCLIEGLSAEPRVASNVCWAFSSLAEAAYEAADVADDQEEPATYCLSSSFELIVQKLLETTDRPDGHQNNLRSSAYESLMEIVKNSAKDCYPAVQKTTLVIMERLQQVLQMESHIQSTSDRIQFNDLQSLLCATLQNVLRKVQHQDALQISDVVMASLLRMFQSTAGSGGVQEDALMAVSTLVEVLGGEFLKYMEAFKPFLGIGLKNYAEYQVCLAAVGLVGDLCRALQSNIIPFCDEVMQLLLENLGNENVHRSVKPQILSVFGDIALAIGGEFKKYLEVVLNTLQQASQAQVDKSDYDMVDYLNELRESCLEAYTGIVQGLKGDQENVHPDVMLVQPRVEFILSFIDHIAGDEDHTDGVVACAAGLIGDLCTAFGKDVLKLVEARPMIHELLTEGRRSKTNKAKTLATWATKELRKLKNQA

The target of assay [1] is GSK-3β (human (endogenous in MDA-MB-231 and MCF7)) (UniProt P49841). Nature of the assay: co-IP; lysates of MDA-MB-231 and MCF7 cells stably expressing vector, immunoprecipitated with an anti-GSK3β or an anti-SNAIL antibody, then immunoblot.
The target of assay [2] is T1, Annexin A1 (ANXA1) (human (endogenous in MDA-MB-231 and MCF7)) (UniProt P04083).
T1 sequence: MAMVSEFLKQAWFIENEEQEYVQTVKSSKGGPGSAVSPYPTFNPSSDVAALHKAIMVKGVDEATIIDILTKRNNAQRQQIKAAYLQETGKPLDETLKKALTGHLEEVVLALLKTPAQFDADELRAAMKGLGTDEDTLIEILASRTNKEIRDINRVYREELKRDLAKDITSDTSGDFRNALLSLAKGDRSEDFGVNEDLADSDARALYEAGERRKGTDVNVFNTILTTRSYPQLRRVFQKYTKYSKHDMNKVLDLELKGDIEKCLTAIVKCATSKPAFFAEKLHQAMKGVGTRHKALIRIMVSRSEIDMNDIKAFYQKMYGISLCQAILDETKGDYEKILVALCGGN
The experiment in a line: co-IP; lysates of MDA-MB-231 and MCF7 cells stably expressing vector or Flag-NTF4, immunoprecipitated with an anti-ANXA1 antibody, then immunoblot.

No constants are given. Whether binding was seen depends on the method and setting. Binding seen in cells or lysates may run through a third protein. Some entries that bind do so weakly or less than the wild type.

As to SNAIL (from UniProt O95863 1-264), in assay [1], the binding entry is “binds”.

Regarding importin β (from UniProt Q14974 1-876), the binding entry in assay [2] is given as “binds”.
